Measurements reported in PubChem BioAssay AID1259260 (Sanger Institute, 2017)
Purpose: 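Essential and drug-synergistic kinases in a colorectal cancer cell line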 (primary screen). Cells: human NCI-H716 colorectal cancer cells. Knock-down reagent: siRNA pool against human genes. Conditions: anchor drugs BYL719 (alpelisib) 1 µM, cetuximab 5 µg/ml or trametinib 10 nM, each at a dose chosen to harm viability only mildly; DMSO vehicle for the knock-down-alone arm. Measurement: 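Mean viability over replicates against non-targeting siRNA, robust z-score without drug, and per-drug synergy comparing combined with single treatments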. Direction: viability robust z-score, siRNA alone: higher = more surviving cells; below -3 called essential; viability vs control, no drug: higher = more surviving cells; synergy score with BYL719 and synergy score with cetuximab and synergy score with trametinib: higher = stronger synergy (synthetic lethality) with drug. Call rule: 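Essential when the robust z-score for knock-down alone falls below -3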. Calls: active = essential (knock-down alone lowers viability); inactive = no essential effect.
This is a random part of 794 deposited reagents. In the full data, 13 (1.6%) were called active. 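Calls reflect only knock-down without drug; synergy above 0.15 was grouped apart and does not change the call.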 Viability is capped at 1. Not stated in the record: the amount of reagent, the time to read-out.

gene	viability robust z-score, siRNA alone	viability vs control, no drug (fraction of control)	synergy score with BYL719	synergy score with cetuximab	synergy score with trametinib	Outcome
TNK2 (tyrosine kinase non receptor 2)	0.277	0.966	-0.0108	-0.102	0.084	inactive
AGK (acylglycerol kinase)	0.602	1	-0.253	-0.1	-0.0294	inactive
CHD9 (chromodomain helicase DNA binding protein 9)	0.602	1	-0.0653	-0.1	-0.115	inactive
MAP3K20 (mitogen-activated protein kinase kinase kinase 20)	0.602	1	-0.283	-0.1	-0.219	inactive
RIPK4 (receptor interacting serine/threonine kinase 4)	0.421	0.981	-0.246	-0.117	-0.0781	inactive
TSKS (testis specific serine kinase substrate)	0.602	1	-0.0816	-0.1	0.105	inactive
ADPGK (ADP dependent glucokinase)	-1.93	0.737	-0.242	0.0339	-0.00175	inactive
CDKL1 (cyclin dependent kinase like 1)	0.602	1	-0.213	-0.1	0.0526	inactive
PBK (PDZ binding kinase)	-0.376	0.898	-0.127	-0.0612	-0.179	inactive
PTK6 (protein tyrosine kinase 6)	0.602	1	-0.15	-0.1	0.0597	inactive
RIPK2 (receptor interacting serine/threonine kinase 2)	-2.91	0.635	-0.154	-0.186	0.103	inactive
FGR (FGR proto-oncogene, Src family tyrosine kinase)	-1.22	0.811	-0.0457	0.0997	0.0537	inactive
MYLK4 (myosin light chain kinase family member 4)	0.602	1	-0.283	-0.1	-0.0657	inactive
IRAK4 (interleukin 1 receptor associated kinase 4)	0.602	1	-0.119	-0.1	0.176	inactive
PRKCQ (protein kinase C theta)	0.602	1	-0.233	-0.1	-0.228	inactive
ITPKB (inositol-trisphosphate 3-kinase B)	-0.0687	0.93	-0.227	-0.163	-0.158	inactive
DGKQ (diacylglycerol kinase theta)	0.602	1	-0.0912	-0.0807	-0.0444	inactive
FRK (fyn related Src family tyrosine kinase)	0.602	1	-0.283	-0.1	-0.162	inactive
RAD21 (RAD21 cohesin complex component)	0.429	0.982	0.00372	0.0169	-0.0458	inactive
MAP2K4 (mitogen-activated protein kinase kinase 4)	0.602	1	-0.188	-0.1	-0.0649	inactive
CDK17 (cyclin dependent kinase 17)	0.602	1	-0.248	-0.1	-0.116	inactive
CDKN1C (cyclin dependent kinase inhibitor 1C)	0.602	1	-0.104	-0.1	0.158	inactive
LMTK1 (lemur tail kinase 1)	0.602	1	-0.114	-0.1	0.155	inactive
IKBKB (inhibitor of nuclear factor kappa B kinase subunit beta)	0.602	1	-0.1	-0.1	0.192	inactive
CDKL4 (cyclin dependent kinase like 4)	0.602	1	-0.0404	-0.1	0.293	inactive
NTN4 (netrin 4)	0.602	1	-0.0886	-0.0669	-0.0844	inactive
PDIK1L (PDLIM1 interacting kinase 1 like)	0.602	1	-0.154	-0.0708	-0.0354	inactive
PIP4K2C (phosphatidylinositol-5-phosphate 4-kinase type 2 gamma)	0.602	1	-0.217	-0.0726	0.016	inactive
IKBKE (inhibitor of nuclear factor kappa B kinase subunit epsilon)	-2.43	0.685	-0.152	0.00962	-0.119	inactive

4 successive records already listed, for reference:
gene	viability robust z-score, siRNA alone	viability vs control, no drug (fraction of control)	synergy score with BYL719	synergy score with cetuximab	synergy score with trametinib	Outcome
MAP3K20 (mitogen-activated protein kinase kinase kinase 20)	0.602	1	-0.283	-0.1	-0.219	inactive
RIPK4 (receptor interacting serine/threonine kinase 4)	0.421	0.981	-0.246	-0.117	-0.0781	inactive
TSKS (testis specific serine kinase substrate)	0.602	1	-0.0816	-0.1	0.105	inactive
ADPGK (ADP dependent glucokinase)	-1.93	0.737	-0.242	0.0339	-0.00175	inactive

The listing continues.
gene	viability robust z-score, siRNA alone	viability vs control, no drug (fraction of control)	synergy score with BYL719	synergy score with cetuximab	synergy score with trametinib	Outcome
PRKCE (protein kinase C epsilon)	-0.746	0.86	-0.0978	-0.224	0.203	inactive
SKAP1 (src kinase associated phosphoprotein 1)	0.602	1	-0.082	-0.1	-0.00538	inactive
TBK1 (TANK binding kinase 1)	0.602	1	-0.283	0.0348	0.0136	inactive
YES1 (YES proto-oncogene 1, Src family tyrosine kinase)	0.602	1	-0.207	-0.1	-0.0907	inactive
XYLB (xylulokinase)	0.602	1	-0.0874	-0.1	-0.0741	inactive
BRWD1 (bromodomain and WD repeat domain containing 1)	0.33	0.972	-0.0183	-0.126	0.0998	inactive
NUP98 (nucleoporin 98 and 96 precursor)	-3.96	0.526	-0.239	-0.0111	0.0464	active
BMP2K (BMP2 inducible kinase)	-1.87	0.743	-0.178	-0.323	-0.0664	inactive
AK5 (adenylate kinase 5)	-0.823	0.852	-0.0315	-0.0109	-0.011	inactive
PTGS1 (prostaglandin-endoperoxide synthase 1)	-2.22	0.707	-0.0221	-0.2	0.0471	inactive
FES (FES proto-oncogene, tyrosine kinase)	-0.673	0.867	-0.206	0.279	-0.0558	inactive
FBXW7 (F-box and WD repeat domain containing 7)	0.602	1	-0.0578	0.046	0.0347	inactive
NRK (Nik related kinase)	0.602	1	-0.219	-0.1	-0.0131	inactive
PIP5KL1 (phosphatidylinositol-4-phosphate 5-kinase like 1)	0.602	1	-0.132	0.0597	0.0539	inactive
NME2 (NME/NM23 nucleoside diphosphate kinase 2)	-0.885	0.845	-0.045	-0.0437	0.262	inactive
JAK3 (Janus kinase 3)	0.602	1	-0.183	-0.1	-0.0595	inactive
NPR2 (natriuretic peptide receptor 2)	0.602	1	-0.283	-0.1	-0.0489	inactive
NLK (nemo like kinase)	-0.25	0.911	-0.182	-0.042	-0.114	inactive
EPHA2 (EPH receptor A2)	0.602	1	-0.283	-0.1	-0.0724	inactive
HSPB8 (heat shock protein family B (small) member 8)	0.326	0.971	-0.24	-0.126	0.0306	inactive
MARK4 (microtubule affinity regulating kinase 4)	-0.373	0.899	-0.112	-0.102	-0.0888	inactive
